PubChem BioAssay AID652272 – Drosophila RNAi Screening Center | 2013

- Aim: 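Genome-wide knock-down search for components of Hedgehog signalling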 (primary screen)
- System: Drosophila clone 8 (Cl8) cells
- Reagent: long dsRNA against Drosophila genes
- Read-out: 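Firefly light from a Hedgehog-responsive ptc promoter reporter and Renilla reference light, both read on a plate reader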
- Direction: firefly Hh reporter signal: higher = more ptc reporter light; Renilla reference signal: higher = more Renilla control light
- Hit rule: 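Called a hit if the two-replicate mean z-score lies below -2 or above +3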
- Calls: active = hit: reporter lowered or raised; inactive = not a hit
The screen tested about 21,000 reagents; shown is an unselected part of those with a known target gene and a result. Over the whole deposit, 503 (2.4%) are marked active. 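Raw plate light values, not normalised; calls rest on replicate z-scores that were not deposited; hits include reporter decreases as well as increases.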 Names joined by + are all predicted targets of the reagent. The record does not give: the amount of reagent, the time to read-out.

predicted target | dsRNA | firefly Hh reporter signal, replicate 1 | firefly Hh reporter signal, replicate 2 | firefly Hh reporter signal, replicate 3 | Renilla reference signal, replicate 1 | Renilla reference signal, replicate 2 | outcome
CG42340 (GeneID 7354472) | DRSC17458 | 7.11e5 | 5.86e5 | 2.49e5 | 39169 | 4954 | inactive
CG42340 (GeneID 7354472) | DRSC17841 | 96000 | 2.85e5 | – | 3511 | 11403 | inactive
CG42340 (GeneID 7354472) | DRSC18305 | 64928 | 1.54e5 | – | 1904 | 7626 | inactive
bark (GeneID 33604) | DRSC00635 | 1.38e5 | 56336 | – | 3530 | 5813 | inactive
mex1 (GeneID 39677) | DRSC11368 | 2.00e5 | – | – | 8209 | 5824 | inactive
Vsx1 (GeneID 31470) | DRSC18349 | 1.87e5 | 1.34e5 | 2.81e5 | 1634 | 5128 | active
Vsx1 (GeneID 31470) | DRSC18350 | 72140 | 73949 | – | 2720 | 3490 | inactive
CG12682 (GeneID 31415) | DRSC17873 | 62433 | 1.60e5 | – | 1616 | 6336 | inactive
CG30098 (GeneID 246456) | DRSC05605 | 1.17e5 | 2.17e5 | – | 3149 | 9536 | inactive
CR43359 (GeneID 12798534) | DRSC03744 | 1.20e5 | 3.19e5 | – | 2569 | 13688 | inactive
CG4558 (GeneID 31631) | DRSC18369 | 89923 | 1.00e5 | – | 1461 | 2368 | inactive
kek3 (GeneID 34912) | DRSC03553 | 1.25e5 | 6.51e5 | 67341 | 2790 | 36545 | inactive
CG8507 (GeneID 41205) | DRSC16435 | 57691 | 1.07e5 | – | 2010 | 3020 | inactive
CG9458 (GeneID 41214) | DRSC16495 | 91971 | 1.50e5 | – | 3211 | 4168 | inactive
CG33322 (GeneID 2768932) | DRSC03204 | 70551 | 44080 | – | 1946 | 3848 | inactive
CG8323 (GeneID 36566) | DRSC07149 | 1.15e5 | 49104 | – | 2900 | 1693 | inactive
pzg (GeneID 40351) | DRSC11848 | 92237 | 59936 | – | 1942 | 1129 | active
Prx6c + CG12896 + Prx6b | DRSC06148 | 1.12e5 | 56696 | – | 2995 | 5605 | inactive
sqh (GeneID 31554) | DRSC18837 | 55833 | 66500 | – | 1760 | 1706 | inactive
CG13314 (GeneID 39030) | DRSC09985 | 43241 | 58171 | – | 4602 | 3414 | inactive
Slc45-1 (GeneID 39055) | DRSC10427 | 50472 | 55723 | – | 2427 | 3725 | inactive
alphaTub85E (GeneID 41183) | DRSC16899 | 38963 | 1.00e5 | – | 1304 | 2269 | inactive
aqz (GeneID 41058) | DRSC16570 | 81863 | 95002 | – | 3820 | 3424 | inactive
CG15914 (GeneID 32542) | DRSC19739 | 52858 | 1.51e5 | – | 1686 | 7190 | inactive
Nup160 + RfC38 | DRSC01997 | 52386 | 27552 | – | 2491 | 1226 | inactive
Lst8 (GeneID 31903) | DRSC18262 | 73562 | 53234 | – | 2092 | 1170 | inactive
xmas (GeneID 44271) | DRSC21306 | 3.60e5 | 1.76e5 | – | 21889 | 8592 | inactive
CG5611 (GeneID 43318) | DRSC15843 | 87298 | 1.09e5 | – | 1809 | 2649 | inactive
Cyp6d4 (GeneID 42682) | DRSC16633 | 1.27e5 | 1.11e5 | – | 6024 | 4721 | inactive
CG7333 (GeneID 42334) | DRSC16229 | 7.79e5 | 1.97e5 | – | 39117 | 4992 | inactive
CG43329 (GeneID 12798461) | DRSC11672 | 71672 | 96295 | – | 3192 | 1387 | inactive
Gr89a (GeneID 42007) | DRSC15023 | 81497 | 71125 | – | 2016 | 423 | inactive
CG13526 (GeneID 37613) | DRSC04168 | 91286 | 58806 | – | 2071 | 5399 | inactive
CG1494 (GeneID 33102) | DRSC20509 | 89685 | 2.13e5 | – | 2872 | 8949 | inactive
CG12104 (GeneID 38187) | DRSC08254 | 88441 | 69904 | – | 6220 | 4604 | active
beta4GalNAcTA (GeneID 36585) | DRSC05944 | 7.66e5 | 1.39e5 | – | 6043 | 6043 | inactive
CG3038 (GeneID 30970) | DRSC18618 | 70912 | 1.28e5 | – | 2137 | 5398 | inactive

Hits (from the list above):
predicted target | dsRNA | firefly Hh reporter signal, replicate 1 | firefly Hh reporter signal, replicate 2 | firefly Hh reporter signal, replicate 3 | Renilla reference signal, replicate 1 | Renilla reference signal, replicate 2 | outcome
Vsx1 (GeneID 31470) | DRSC18349 | 1.87e5 | 1.34e5 | 2.81e5 | 1634 | 5128 | active
pzg (GeneID 40351) | DRSC11848 | 92237 | 59936 | – | 1942 | 1129 | active
CG12104 (GeneID 38187) | DRSC08254 | 88441 | 69904 | – | 6220 | 4604 | active

More reagents follow:
predicted target | dsRNA | firefly Hh reporter signal, replicate 1 | firefly Hh reporter signal, replicate 2 | firefly Hh reporter signal, replicate 3 | Renilla reference signal, replicate 1 | Renilla reference signal, replicate 2 | outcome
CG13049 (GeneID 39788) | DRSC09930 | 1.53e5 | – | – | 7560 | 4292 | inactive
Or65b (GeneID 318012) | DRSC08809 | 1.45e5 | 2.72e5 | – | 3756 | 10730 | inactive
Daxx (GeneID 33906) | DRSC03255 | 94867 | 82890 | – | 4279 | 2788 | inactive
Scox (GeneID 33711) | DRSC03117 | 1.02e5 | 62777 | – | 2464 | 5977 | inactive
CG15472 (GeneID 31409) | DRSC18055 | 73768 | 1.49e5 | – | 2245 | 5691 | inactive
CG4768 (GeneID 32666) | DRSC19917 | 4.75e5 | 1.43e5 | 1.31e5 | 35304 | 3362 | inactive
Cyp6a18 (GeneID 43304) | DRSC16632 | 1.25e5 | 1.03e5 | – | 4183 | 2054 | inactive
CG31010 (GeneID 318555) | DRSC14006 | 5.54e5 | 2.37e5 | – | 27276 | 4900 | inactive
Baldspot (GeneID 39860) | DRSC09671 | 1.56e5 | – | – | 1495 | 7011 | inactive
alpha-Est5 (GeneID 40905) | DRSC12617 | 1.70e5 | 1.26e5 | – | 6696 | 4922 | inactive
CG3918 (GeneID 31585) | DRSC18331 | 50470 | 34147 | – | 1372 | 771 | inactive
TBC1D16 (GeneID 34431) | DRSC02841 | 1.21e5 | 63546 | – | 3074 | 5371 | inactive
LanB2 (GeneID 39118) | DRSC11208 | 1.06e5 | 59648 | – | 4732 | 2625 | inactive
CG7071 + Muted | DRSC16189 | 5.13e5 | 1.93e5 | – | 23600 | 4836 | inactive
Dyrk2 (GeneID 34831) | DRSC03610 | 61265 | 96152 | – | 3104 | 3850 | inactive
Gos28 (GeneID 248102) | DRSC16292 | 8.65e5 | 2.19e5 | – | 45622 | 5858 | inactive
Nplp3 (GeneID 59235) | DRSC09944 | 1.79e5 | – | – | 2267 | 5216 | inactive
CG15638 (GeneID 34768) | DRSC01875 | 99750 | 45059 | – | 2940 | 4290 | inactive
Bdp1 (GeneID 34748) | DRSC03192 | 77675 | 42627 | – | 3450 | 2280 | inactive
Atx2 (GeneID 41883) | DRSC15727 | 16345 | 13965 | – | 1371 | 769 | active
